Experimental data from PubChem BioAssay AID504467 (National Center for Advancing Translational Sciences (NCATS), 2011).
The whole screen tested about 330,000 compounds, of which about 7,700 (2.3%) were called active. This list was built around the results that the source calls inconclusive (neither active nor inactive); the mix of calls is not that of the screen. Calls follow the shape of the dose curve; as a rule, active = well fitted inhibition curve with a large enough effect; inconclusive = small, poorly fitted or top-dose-only effect, or effect the other way; inactive = flat fitted curve, though single readings scatter. A potency beside an inconclusive call is a rough fit, not a confirmed value.

assay: qHTS screen for small molecules that inhibit ELG1-dependent DNA repair in human embryonic kidney (HEK293T) cells expressing luciferase-tagged ELG1; conditions: HEK293T ELG1-luciferase reporter, luminescence, 16 h, DNA damage induced by 5-fluorouridine; series mostly up to 46.1 µM; also: nearly all actives have a fitted effect of over 55% in size
Procedure, shortened: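 Step one: seed 2,000 cells per well. Step two: pin-transfer compound or DMSO alongside 5-fluorouridine. Step three: incubate 16 hr, 37 °C, 5% CO2. Step four: add ONE-Glo, wait 30 min, read luminescence.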
Potency is read from the fitted curve at half-maximal effect.

Compound | Potency
CN(C)C=Nc1c(C(=O)c2ccccc2)sc2nccc(N(C)C)c12 | inconclusive: 10.3 µM [inhibitor, partial curve]
CCN(CC)C(=O)c1cccc(NC(=O)C2CCN(C(=O)c3cccs3)CC2)c1 | inactive
CCOC(=O)Cc1c(C)c2c(C)nn(-c3ccccc3)c2oc1=O | inconclusive: 23.1 µM [inhibitor, partial curve, poor fit]
O=C(c1cc2n(n1)C(C(F)(F)F)CC(c1ccco1)N2)N1CCc2ccccc2C1 (centres undefined) | inconclusive: 11.6 µM [inhibitor, partial curve, poor fit]
CCN(CC)S(=O)(=O)c1cc(C(=O)Nc2ccncc2)ccc1Cl | inconclusive: 6.51 µM [inhibitor, partial curve, poor fit]
CCOC(=O)c1c(C)[nH]c(C(=O)COC(=O)C(C)N2C(=O)C3CCCCC3C2=O)c1C (centres undefined) | inconclusive: 16.4 µM [inhibitor, single point]
CCOC(CCn1c(SCc2cccc([N+](=O)[O-])c2)nc2ccccc2c1=O)OCC | inconclusive: 32.6 µM [inhibitor, single point]
COc1ccc(CC(=O)Nc2ccc(-c3noc(-c4cccc(OC)c4)n3)cc2)cc1 | inconclusive: 8.2 µM [activator, partial curve, poor fit]
CCNc1nc(N)c(C(=O)c2ccc(Cl)s2)s1 | inconclusive: 9.2 µM [activator, partial curve]
CCCCN(CC)S(=O)(=O)c1ccc(C(=O)N(CCCN(C)C)c2nc3cc(C)cc(C)c3s2)cc1 | inactive
CCC(=O)NC(=S)Nc1ccc(NC(=O)c2ccc([N+](=O)[O-])cc2)cc1 | inconclusive: 0.92 µM [inhibitor, full curve]
CCc1ccc(-c2nc(SCC(=O)N(C)C3CCS(=O)(=O)C3)n[nH]2)cc1 (centres undefined) | inconclusive: 20.6 µM [activator, single point]
CCOC(=O)N/N=C/c1cn(CCCOc2ccc(C)cc2)c2ccccc12 | inactive
COc1cc(C(=O)N2CCN(C/C=C/c3ccccc3)CC2)cc(OC)c1C | inconclusive: 25.9 µM [inhibitor, single point]
CCN=C1SC(C(=O)Nc2cccc(Cl)c2)CC(=O)N1CC (centres undefined) | inconclusive: 0.517 µM [inhibitor, partial curve]
Cc1ccc(Cl)c(OCC(=O)NCc2ccco2)c1 | inconclusive: 20.6 µM [activator, single point]
CCCOc1ccc2c(c1)C(=NN=C(N)N)c1cc(OCCC)ccc1-2 | inconclusive: 29.1 µM [inhibitor, single point]
Cc1nc2cc(NCc3ccccc3O)ccc2n1Cc1ccccc1 | inconclusive: 16.4 µM [activator, partial curve, poor fit]
O=C(CN1C(=O)c2ccccc2C1=O)c1ccccc1 | inconclusive: 23.1 µM [activator, partial curve]
O=[N+]([O-])c1ccc(N2CCN(S(=O)(=O)c3ccc(Cl)c(Cl)c3)CC2)cc1NCCN1CCOCC1 | inactive
CCCN(CC(=O)Nc1ccccc1OC)C(=O)C1=COCCO1 | inactive
CSc1nc2sc(-c3ccccc3)cc2c(=O)n1N | inconclusive: 6.51 µM [activator, partial curve]
CCOC(=O)C1CCN(C(=O)/C=C/c2ccccc2)CC1 | inconclusive: 4.11 µM [activator, partial curve]

A draw from above in order of length of the SMILES, low to high.
Compound | Potency
CCNc1nc(N)c(C(=O)c2ccc(Cl)s2)s1 | inconclusive: 9.2 µM [activator, partial curve]
CCOC(=O)Cc1c(C)c2c(C)nn(-c3ccccc3)c2oc1=O | inconclusive: 23.1 µM [inhibitor, partial curve, poor fit]
CCCOc1ccc2c(c1)C(=NN=C(N)N)c1cc(OCCC)ccc1-2 | inconclusive: 29.1 µM [inhibitor, single point]
O=C(c1cc2n(n1)C(C(F)(F)F)CC(c1ccco1)N2)N1CCc2ccccc2C1 (centres undefined) | inconclusive: 11.6 µM [inhibitor, partial curve, poor fit]
CCOC(=O)c1c(C)[nH]c(C(=O)COC(=O)C(C)N2C(=O)C3CCCCC3C2=O)c1C (centres undefined) | inconclusive: 16.4 µM [inhibitor, single point]

Next part.

Compound | Potency
N/C(=N\OC(=O)c1cccs1)c1ccc(Cl)cc1 | inconclusive: 16.4 µM [activator, partial curve]
C=CCN1C(=O)c2ccc(C(=O)N3CCN(c4ccccc4OC)CC3)cc2C1=O | inactive
C[C@H](CO)N1C[C@H](C)[C@@H](CN(C)Cc2ccc(C(=O)O)cc2)Oc2ccc(NS(=O)(=O)c3cn(C)cn3)cc2C1=O | inconclusive: 18.3 µM [activator, partial curve, poor fit]
O=C(COC(=O)/C=C/c1cccc(Br)c1)NC1CCCCCC1 | inconclusive: 20 µM [activator, single point]
Cc1cc2oc(=O)cc(CN3CCN(S(=O)(=O)c4ccc5c(c4)OCCO5)CC3)c2cc1C | inconclusive: 10 µM [inhibitor, partial curve, poor fit]
COc1ccc2c(c1)C(C)=CC(C)(C)N2C(=O)Nc1ccccc1 | inconclusive: 18.4 µM [activator, partial curve, poor fit]
COc1ccc(-c2cccc(NS(=O)(=O)c3cc([N+](=O)[O-])ccc3Cl)c2)nn1 | inactive
Cc1[nH]n(-c2ncc(-c3ccccc3)s2)c(=O)c1C(c1ccc(Br)cc1)C(C#N)C#N (centres undefined) | inconclusive: 29.1 µM [activator, single point]
COc1ccc(CN2CCN(c3ccccn3)CC2)cc1OCc1ccccc1 | inconclusive: 7.31 µM [inhibitor, partial curve, poor fit]
CC(=O)N/C(=C\c1ccccc1)C(=O)OCC(=O)Nc1ccc(C)c(S(=O)(=O)N(C)C)c1 | inactive
Cc1ccc(S(=O)(=O)N2CCCC2C(=O)N(C)Cc2cccs2)cc1 (centres undefined) | inconclusive: 3.26 µM [activator, single point]
CC1=C(C#N)c2nc(N)c(C#N)c(C)c2/C1=C\c1ccc(C)cc1 | inconclusive: 22.4 µM [inhibitor, single point]
CCOc1ccc2nc(SCC(=O)NCc3ccco3)sc2c1 | inactive
CCOC(=O)CC1COCCN1C(=O)c1cc(COc2ccc(F)c(F)c2)on1 (centres undefined) | inconclusive: 18.3 µM [activator, partial curve]
O=C(c1cccc(S(=O)(=O)N2CCOCC2)c1)N1CCN(c2ccccc2)CC1 | inactive
COc1ccc(C(=O)NCC(=O)OCc2csc(-c3ccccc3)n2)cc1 | inconclusive: 20.6 µM [activator, single point]
COc1ccc(-n2nnnc2SCC(=O)Nc2c(C)n[nH]c2C)cc1 | inactive
COc1ccccc1-c1ccc(SCC(=O)NC2CCCC2)nn1 | inconclusive: 1.16 µM [inhibitor, single point]
CC(C)(C)c1ccc(C(=O)/C=C2\NC(=O)CS2)cc1 | inconclusive: 2.59 µM [activator, partial curve]
CC1CCc2[nH]c3ccc(C(=O)NCCCOC(C)C)cc3c2C1 (centres undefined) | inactive
Cc1cc(C)n2nc(SCc3c(F)cccc3Cl)nc2n1 | inconclusive: 23.1 µM [activator, single point]
Cc1sc(=NC(=O)c2ccco2)n(C)c1-c1ccccc1 | inconclusive: 2.59 µM [activator, partial curve]
C[C@H](NS(=O)(=O)c1ccc(Cl)c(Cl)c1)C(=O)OCc1cc(=O)n2cc(Br)ccc2n1 | inconclusive: 16.4 µM [activator, single point]

Compound | Potency
O=c1[nH]c(/C=C\c2cccs2)nc(O)c1[N+](=O)[O-] | inactive
COc1ccc(NC(=O)c2cc([N+](=O)[O-])ccc2N2CCCCC2)cc1 | inconclusive: 29.1 µM [inhibitor, single point]
CCC(C)N(C(=O)COC(=O)c1cc([N+](=O)[O-])ccc1N1CCOCC1)C1CCS(=O)(=O)C1 (centres undefined) | inconclusive: 5.17 µM [activator, single point]
N#C/C(=C\c1ccc(O)c([N+](=O)[O-])c1)c1nc2ccccc2s1 | inactive
O=Cc1ccc(OCC(=O)N2CCc3ccccc32)c(Br)c1 | inconclusive: 20.6 µM [activator, partial curve]
CC(CCc1ccccc1)NC(=O)c1cccc(F)c1 (centres undefined) | inconclusive: 0.092 µM [inhibitor, single point]
CC(C)Oc1ccc(C(=O)Nc2cccc3cccnc23)cc1 | inconclusive: 29.1 µM [activator, single point]
Clc1cccc(CN2CCN(Cc3ccco3)CC2)c1 | inactive
CCOc1ccc2nc(NS(C)(=O)=O)sc2c1 | inconclusive: 13 µM [activator, partial curve, poor fit]
O=C(NCCc1ccc(F)cc1)C1CCCO1 (centres undefined) | inactive
COc1ccccc1CNC(=O)CSc1ccccc1 | inconclusive: 23.1 µM [activator, partial curve]
Cn1cnc2cc(NC(=O)c3cccs3)ccc21 | inconclusive: 18.3 µM [activator, partial curve]
COc1ccc(Cl)cc1NC(=O)c1noc(C)c1[N+](=O)[O-] | inactive
CCC1(C)Nc2ccccc2C(=O)N1O (centres undefined) | inactive
Cc1c(CN2CCC(CO)(CCOc3ccccc3)CC2)[nH]c2ccc(Cl)cc12 | inconclusive: 11.6 µM [activator, partial curve]
Cc1ccc(NC(=O)NCc2ccc3c(c2)OCO3)cc1 | inconclusive: 16.4 µM [activator, partial curve]
O=C(CSC1CC(=O)N(CCc2ccccc2)C1=O)Nc1ccc(Br)cc1 (centres undefined) | inactive
COCCNC(=O)CCCCCN1C(=O)CCC1=O | inactive
O=C(CSc1nc2c(c(=O)n1-c1ccccc1)SCC2)N1CCOCC1 | inactive
Cc1ccsc1C(=O)OCC(=O)N(C)C1CCCCC1 | inconclusive: 1.64 µM [activator, partial curve]
O=C(/C=C/c1ccc(F)cc1)c1ccc(N2CCOCC2)cc1 | inactive
CCOc1ccc(C(=O)Nc2ccc(N3CCN(C)CC3)cc2)cc1 | inconclusive: 18.3 µM [activator, partial curve, poor fit]
O=C(CSc1nc(-c2ccco2)cc(C(F)(F)F)n1)N1CCN(c2ccc(Cl)cc2)CC1 | inconclusive: 29.1 µM [inhibitor, single point]
